These are yes or no findings as the source states them, for the method shown. In cells and extracts the contact can be indirect. Here binding means that the protein was enriched with, or labelled near, the bait; the list need not be complete.
B1: ABCF2 (protein, UniProt Q9UG63 1-623)
chain: MPSDLAKKKAAKKKEAAKARQRPRKGHEENGDVVTEPQVAEKNEANGRETTEVDLLTKELEDFEMKKAAARAVTGVLASHPNSTDVHIINLSLTFHGQELLSDTKLELNSGRRYGLIGLNGIGKSMLLSAIGKREVPIPEHIDIYHLTREMPPSDKTPLHCVMEVDTERAMLEKEAERLAHEDAECEKLMELYERLEELDADKAEMRASRILHGLGFTPAMQRKKLKDFSGGWRMRVALARALFIRPFMLLLDEPTNHLDLDACVWLEEELKTFKRILVLVSHSQDFLNGVCTNIIHMHNKKLKYYTGNYDQYVKTRLELEENQMKRFHWEQDQIAHMKNYIARFGHGSAKLARQAQSKEKTLQKMMASGLTERVVSDKTLSFYFPPCGKIPPPVIMVQNVSFKYTKDGPCIYNNLEFGIDLDTRVALVGPNGAGKSTLLKLLTGELLPTDGMIRKHSHVKIGRYHQHLQEQLDLDLSPLEYMMKCYPEIKEKEEMRKIIGRYGLTGKQQVSPIRNLSDGQKCRVCLAWLAWQNPHMLFLDEPTNHLDIETIDALADAINEFEGGMMLVSHDFRLIQQVAQEIWVCEKQTITKWPGDILAYKEHLKSKLVDEEPQLTKRTHNV
B2: ADAR (protein, UniProt P55265 1-1226)
chain: MNPRQGYSLSGYYTHPFQGYEHRQLRYQQPGPGSSPSSFLLKQIEFLKGQLPEAPVIGKQTPSLPPSLPGLRPRFPVLLASSTRGRQVDIRGVPRGVHLRSQGLQRGFQHPSPRGRSLPQRGVDCLSSHFQELSIYQDQEQRILKFLEELGEGKATTAHDLSGKLGTPKKEINRVLYSLAKKGKLQKEAGTPPLWKIAVSTQAWNQHSGVVRPDGHSQGAPNSDPSLEPEDRNSTSVSEDLLEPFIAVSAQAWNQHSGVVRPDSHSQGSPNSDPGLEPEDSNSTSALEDPLEFLDMAEIKEKICDYLFNVSDSSALNLAKNIGLTKARDINAVLIDMERQGDVYRQGTTPPIWHLTDKKRERMQIKRNTNSVPETAPAAIPETKRNAEFLTCNIPTSNASNNMVTTEKVENGQEPVIKLENRQEARPEPARLKPPVHYNGPSKAGYVDFENGQWATDDIPDDLNSIRAAPGEFRAIMEMPSFYSHGLPRCSPYKKLTECQLKNPISGLLEYAQFASQTCEFNMIEQSGPPHEPRFKFQVVINGREFPPAEAGSKKVAKQDAAMKAMTILLEEAKAKDSGKSEESSHYSTEKESEKTAESQTPTPSATSFFSGKSPVTTLLECMHKLGNSCEFRLLSKEGPAHEPKFQYCVAVGAQTFPSVSAPSKKVAKQMAAEEAMKALHGEATNSMASDNQPEGMISESLDNLESMMPNKVRKIGELVRYLNTNPVGGLLEYARSHGFAAEFKLVDQSGPPHEPKFVYQAKVGGRWFPAVCAHSKKQGKQEAADAALRVLIGENEKAERMGFTEVTPVTGASLRRTMLLLSRSPEAQPKTLPLTGSTFHDQIAMLSHRCFNTLTNSFQPSLLGRKILAAIIMKKDSEDMGVVVSLGTGNRCVKGDSLSLKGETVNDCHAEIISRRGFIRFLYSELMKYNSQTAKDSIFEPAKGGEKLQIKKTVSFHLYISTAPCGDGALFDKSCSDRAMESTESRHYPVFENPKQGKLRTKVENGEGTIPVESSDIVPTWDGIRLGERLRTMSCSDKILRWNVLGLQGALLTHFLQPIYLKSVTLGYLFSQGHLTRAICCRVTRDGSAFEDGLRHPFIVNHPKVGRVSIYDSKRQSGKTKETSVNWCLADGYDLEILDGTRGTVDGPRNELSRVSKKNIFLLFKKLCSFRYRRDLLRLSYGEAKKAARDYETAKNYFKKGLKDMGYGNWISKPQEEKNFYLCPV
B3: ATXN2L (protein, UniProt Q8WWM7 1-1075)
chain: MLKPQPLQQPSQPQQPPPTQQAVARRPPGGTSPPNGGLPGPLATSAAPPGPPAAASPCLGPVAAAGSGLRRGAEGILAPQPPPPQQHQERPGAAAIGSARGQSTGKGPPQSPVFEGVYNNSRMLHFLTAVVGSTCDVKVKNGTTYEGIFKTLSSKFELAVDAVHRKASEPAGGPRREDIVDTMVFKPSDVMLVHFRNVDFNYATKDKFTDSAIAMNSKVNGEHKEKVLQRWEGGDSNSDDYDLESDMSNGWDPNEMFKFNEENYGVKTTYDSSLSSYTVPLEKDNSEEFRQRELRAAQLAREIESSPQYRLRIAMENDDGRTEEEKHSAVQRQGSGRESPSLASREGKYIPLPQRVREGPRGGVRCSSSRGGRPGLSSLPPRGPHHLDNSSPGPGSEARGINGGPSRMSPKAQRPLRGAKTLSSPSNRPSGETSVPPPPAVGRMYPPRSPKSAAPAPISASCPEPPIGSAVPTSSASIPVTSSVSDPGVGSISPASPKISLAPTDVKELSTKEPGRTLEPQELARIAGKVPGLQNEQKRFQLEELRKFGAQFKLQPSSSPENSLDPFPPRILKEEPKGKEKEVDGLLTSEPMGSPVSSKTESVSDKEDKPPLAPSGGTEGPEQPPPPCPSQTGSPPVGLIKGEDKDEGPVAEQVKKSTLNPNAKEFNPTKPLLSVNKSTSTPTSPGPRTHSTPSIPVLTAGQSGLYSPQYISYIPQIHMGPAVQAPQMYPYPVSNSVPGQQGKYRGAKGSLPPQRSDQHQPASAPPMMQAAAAAGPPLVAATPYSSYIPYNPQQFPGQPAMMQPMAHYPSQPVFAPMLQSNPRMLTSGSHPQAIVSSSTPQYPSAEQPTPQALYATVHQSYPHHATQLHAHQPQPATTPTGSQPQSQHAAPSPVQHQAGQAPHLGSGQPQQNLYHPGALTGTPPSLPPGPSAQSPQSSFPQPAAVYAIHHQQLPHGFTNMAHVTQAHVQTGITAAPPPHPGAPHPPQVMLLHPPQSHGGPPQGAVPQSGVPALSASTPSPYPYIGHPQGEQPGQAPGFPGGADDRIREFSLAGGIWHGRAEGLQVGQDARVLGGE
B4: C1orf57 (protein, UniProt Q9BSD7 1-190)
chain: MARHVFLTGPPGVGKTTLIHKASEVLKSSGVPVDGFYTEEVRQGGRRIGFDVVTLSGTRGPLSRVGLEPPPGKRECRVGQYVVDLTSFEQLALPVLRNADCSSGPGQRVCVIDEIGKMELFSQLFIQAVRQTLSTPGTIILGTIPVPKGKPLALVEEIRNRKDVKVFNVTKENRNHLLPDIVTCVQSSRK
B5: CISD2 (protein, UniProt Q8N5K1 1-135)
chain: MVLESVARIVKVQLPAYLKRLPVPESITGFARLTVSEWLRLLPFLGVLALLGYLAVRPFLPKKKQQKDSLINLKIQKENPKVVNEINIEDLCLTKAAYCRCWRSKTFPACDGSHNKHNELTGDNVGPLILKKKEV

Protein sequences, listed by entry. Tags and fused reporters are not part of them. Residues count along the entry.
UniProt O43736: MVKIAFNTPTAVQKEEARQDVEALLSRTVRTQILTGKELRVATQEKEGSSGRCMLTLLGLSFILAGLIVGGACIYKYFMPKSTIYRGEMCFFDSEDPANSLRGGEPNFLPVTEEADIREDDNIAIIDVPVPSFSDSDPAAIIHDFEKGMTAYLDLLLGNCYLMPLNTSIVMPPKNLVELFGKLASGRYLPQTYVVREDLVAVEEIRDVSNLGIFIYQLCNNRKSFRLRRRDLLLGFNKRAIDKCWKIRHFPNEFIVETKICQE
UniProt P42771: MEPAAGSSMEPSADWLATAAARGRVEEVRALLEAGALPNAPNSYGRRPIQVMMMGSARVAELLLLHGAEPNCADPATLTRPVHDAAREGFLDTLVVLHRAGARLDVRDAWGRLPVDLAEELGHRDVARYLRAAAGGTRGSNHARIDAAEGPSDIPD
UniProt P26641: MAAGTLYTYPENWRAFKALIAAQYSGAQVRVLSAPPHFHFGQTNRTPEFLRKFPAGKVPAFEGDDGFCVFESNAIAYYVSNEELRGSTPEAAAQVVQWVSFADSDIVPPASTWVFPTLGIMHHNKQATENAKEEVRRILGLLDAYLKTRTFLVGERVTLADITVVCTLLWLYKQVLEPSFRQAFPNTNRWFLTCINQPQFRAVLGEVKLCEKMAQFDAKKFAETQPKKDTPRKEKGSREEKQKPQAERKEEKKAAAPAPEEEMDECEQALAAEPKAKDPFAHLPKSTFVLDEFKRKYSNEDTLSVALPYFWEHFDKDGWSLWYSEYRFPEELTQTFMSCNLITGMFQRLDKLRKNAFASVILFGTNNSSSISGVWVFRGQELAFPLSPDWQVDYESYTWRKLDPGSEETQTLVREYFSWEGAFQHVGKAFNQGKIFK
UniProt O60884: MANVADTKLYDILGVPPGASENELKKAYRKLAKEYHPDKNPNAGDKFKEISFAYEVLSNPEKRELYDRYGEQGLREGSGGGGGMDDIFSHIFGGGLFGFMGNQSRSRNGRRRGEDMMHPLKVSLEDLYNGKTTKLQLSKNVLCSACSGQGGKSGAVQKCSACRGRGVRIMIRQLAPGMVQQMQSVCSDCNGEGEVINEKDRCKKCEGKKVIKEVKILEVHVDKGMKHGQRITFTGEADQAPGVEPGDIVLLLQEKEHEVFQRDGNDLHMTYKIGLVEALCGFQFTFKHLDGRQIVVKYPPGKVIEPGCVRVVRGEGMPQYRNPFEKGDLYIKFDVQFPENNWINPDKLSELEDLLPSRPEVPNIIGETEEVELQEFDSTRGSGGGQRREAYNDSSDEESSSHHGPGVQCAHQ
UniProt Q9UKM9: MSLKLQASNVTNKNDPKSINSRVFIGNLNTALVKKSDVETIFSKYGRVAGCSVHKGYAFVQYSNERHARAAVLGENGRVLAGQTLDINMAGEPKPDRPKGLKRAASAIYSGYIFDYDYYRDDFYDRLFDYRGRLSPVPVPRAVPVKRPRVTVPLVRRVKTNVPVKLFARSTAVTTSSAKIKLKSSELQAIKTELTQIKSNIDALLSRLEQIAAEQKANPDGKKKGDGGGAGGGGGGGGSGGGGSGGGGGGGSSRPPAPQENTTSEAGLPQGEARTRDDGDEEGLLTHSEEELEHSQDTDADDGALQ
UniProt P60842: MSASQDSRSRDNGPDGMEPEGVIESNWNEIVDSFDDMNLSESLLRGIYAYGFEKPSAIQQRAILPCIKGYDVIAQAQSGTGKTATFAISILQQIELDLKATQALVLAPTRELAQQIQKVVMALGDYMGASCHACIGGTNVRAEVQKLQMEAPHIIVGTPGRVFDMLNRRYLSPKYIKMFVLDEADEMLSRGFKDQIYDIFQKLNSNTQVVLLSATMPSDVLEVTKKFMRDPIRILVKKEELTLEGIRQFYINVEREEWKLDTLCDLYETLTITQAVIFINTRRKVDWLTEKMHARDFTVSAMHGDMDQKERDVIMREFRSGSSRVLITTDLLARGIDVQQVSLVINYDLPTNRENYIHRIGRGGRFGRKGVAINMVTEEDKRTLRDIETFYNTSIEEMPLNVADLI
UniProt O43242: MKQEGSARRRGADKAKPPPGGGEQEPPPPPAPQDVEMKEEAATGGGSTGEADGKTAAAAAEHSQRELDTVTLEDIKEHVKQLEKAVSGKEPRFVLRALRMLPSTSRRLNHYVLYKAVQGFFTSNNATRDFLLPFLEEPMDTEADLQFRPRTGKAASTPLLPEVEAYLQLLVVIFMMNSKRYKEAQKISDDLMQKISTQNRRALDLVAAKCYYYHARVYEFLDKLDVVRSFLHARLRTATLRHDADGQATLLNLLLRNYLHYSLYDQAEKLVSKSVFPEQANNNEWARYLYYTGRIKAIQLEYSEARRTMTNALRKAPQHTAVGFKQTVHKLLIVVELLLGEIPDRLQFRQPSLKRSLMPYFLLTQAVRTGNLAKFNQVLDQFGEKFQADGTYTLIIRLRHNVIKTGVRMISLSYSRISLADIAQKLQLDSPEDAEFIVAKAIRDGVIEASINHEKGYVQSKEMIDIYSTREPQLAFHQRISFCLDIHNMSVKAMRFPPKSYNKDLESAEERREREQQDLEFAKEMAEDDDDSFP
UniProt P06748: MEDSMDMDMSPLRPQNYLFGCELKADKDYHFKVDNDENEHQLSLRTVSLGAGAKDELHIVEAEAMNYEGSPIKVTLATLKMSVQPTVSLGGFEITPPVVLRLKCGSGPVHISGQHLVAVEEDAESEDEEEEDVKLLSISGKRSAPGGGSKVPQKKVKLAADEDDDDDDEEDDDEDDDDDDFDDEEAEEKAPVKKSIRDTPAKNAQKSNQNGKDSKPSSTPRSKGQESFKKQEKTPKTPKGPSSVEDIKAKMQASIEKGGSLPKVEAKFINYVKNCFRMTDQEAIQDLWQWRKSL
UniProt P11021, residues 19-654: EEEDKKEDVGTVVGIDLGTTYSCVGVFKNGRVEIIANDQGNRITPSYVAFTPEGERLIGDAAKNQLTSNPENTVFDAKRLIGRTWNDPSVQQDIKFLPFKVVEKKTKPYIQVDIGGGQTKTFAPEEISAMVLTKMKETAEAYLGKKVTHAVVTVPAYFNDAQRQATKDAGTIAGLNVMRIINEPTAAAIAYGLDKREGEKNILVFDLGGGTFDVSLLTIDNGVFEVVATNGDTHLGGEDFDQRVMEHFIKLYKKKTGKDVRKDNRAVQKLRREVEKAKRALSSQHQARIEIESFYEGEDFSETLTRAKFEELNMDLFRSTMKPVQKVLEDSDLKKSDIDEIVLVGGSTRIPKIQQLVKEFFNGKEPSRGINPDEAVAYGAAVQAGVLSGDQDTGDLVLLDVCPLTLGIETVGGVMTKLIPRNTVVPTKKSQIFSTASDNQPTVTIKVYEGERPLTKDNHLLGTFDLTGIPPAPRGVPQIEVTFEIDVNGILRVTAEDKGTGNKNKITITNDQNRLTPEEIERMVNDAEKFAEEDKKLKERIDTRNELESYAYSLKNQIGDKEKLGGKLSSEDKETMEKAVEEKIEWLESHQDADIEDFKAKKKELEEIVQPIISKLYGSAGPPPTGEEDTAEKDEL
UniProt P09012: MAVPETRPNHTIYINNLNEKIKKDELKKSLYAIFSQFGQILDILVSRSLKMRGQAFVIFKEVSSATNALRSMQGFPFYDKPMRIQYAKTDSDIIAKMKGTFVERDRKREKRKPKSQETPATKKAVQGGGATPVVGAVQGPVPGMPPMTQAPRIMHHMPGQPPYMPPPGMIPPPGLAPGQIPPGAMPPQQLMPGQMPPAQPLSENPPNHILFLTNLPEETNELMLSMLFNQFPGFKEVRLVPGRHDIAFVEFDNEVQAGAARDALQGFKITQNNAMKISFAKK
UniProt P05121, residues 24-402: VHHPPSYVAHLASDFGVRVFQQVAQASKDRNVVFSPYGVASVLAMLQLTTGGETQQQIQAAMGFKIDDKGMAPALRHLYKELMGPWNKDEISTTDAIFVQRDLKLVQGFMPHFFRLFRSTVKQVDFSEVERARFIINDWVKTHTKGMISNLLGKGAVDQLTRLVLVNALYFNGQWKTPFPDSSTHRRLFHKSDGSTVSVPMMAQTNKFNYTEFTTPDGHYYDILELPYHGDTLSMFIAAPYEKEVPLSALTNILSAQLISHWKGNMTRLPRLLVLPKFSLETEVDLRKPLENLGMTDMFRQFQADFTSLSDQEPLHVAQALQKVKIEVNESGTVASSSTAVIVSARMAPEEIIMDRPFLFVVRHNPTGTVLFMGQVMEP
UniProt P27824, residues 21-592: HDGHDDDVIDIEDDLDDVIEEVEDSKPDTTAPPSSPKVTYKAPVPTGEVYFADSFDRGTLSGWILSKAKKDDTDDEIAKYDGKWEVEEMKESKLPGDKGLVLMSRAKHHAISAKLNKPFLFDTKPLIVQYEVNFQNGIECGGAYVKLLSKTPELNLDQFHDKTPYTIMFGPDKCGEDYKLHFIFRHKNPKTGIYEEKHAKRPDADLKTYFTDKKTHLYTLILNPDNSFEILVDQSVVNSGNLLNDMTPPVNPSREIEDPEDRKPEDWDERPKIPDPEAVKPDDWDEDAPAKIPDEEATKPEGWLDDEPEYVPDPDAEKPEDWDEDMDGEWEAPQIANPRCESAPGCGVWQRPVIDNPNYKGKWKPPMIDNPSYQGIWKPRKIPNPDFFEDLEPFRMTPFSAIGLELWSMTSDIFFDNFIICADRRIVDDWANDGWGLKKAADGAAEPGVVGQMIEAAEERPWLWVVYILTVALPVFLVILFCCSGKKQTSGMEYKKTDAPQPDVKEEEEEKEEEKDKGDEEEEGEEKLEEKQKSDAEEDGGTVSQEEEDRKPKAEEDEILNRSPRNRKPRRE
UniProt P55060: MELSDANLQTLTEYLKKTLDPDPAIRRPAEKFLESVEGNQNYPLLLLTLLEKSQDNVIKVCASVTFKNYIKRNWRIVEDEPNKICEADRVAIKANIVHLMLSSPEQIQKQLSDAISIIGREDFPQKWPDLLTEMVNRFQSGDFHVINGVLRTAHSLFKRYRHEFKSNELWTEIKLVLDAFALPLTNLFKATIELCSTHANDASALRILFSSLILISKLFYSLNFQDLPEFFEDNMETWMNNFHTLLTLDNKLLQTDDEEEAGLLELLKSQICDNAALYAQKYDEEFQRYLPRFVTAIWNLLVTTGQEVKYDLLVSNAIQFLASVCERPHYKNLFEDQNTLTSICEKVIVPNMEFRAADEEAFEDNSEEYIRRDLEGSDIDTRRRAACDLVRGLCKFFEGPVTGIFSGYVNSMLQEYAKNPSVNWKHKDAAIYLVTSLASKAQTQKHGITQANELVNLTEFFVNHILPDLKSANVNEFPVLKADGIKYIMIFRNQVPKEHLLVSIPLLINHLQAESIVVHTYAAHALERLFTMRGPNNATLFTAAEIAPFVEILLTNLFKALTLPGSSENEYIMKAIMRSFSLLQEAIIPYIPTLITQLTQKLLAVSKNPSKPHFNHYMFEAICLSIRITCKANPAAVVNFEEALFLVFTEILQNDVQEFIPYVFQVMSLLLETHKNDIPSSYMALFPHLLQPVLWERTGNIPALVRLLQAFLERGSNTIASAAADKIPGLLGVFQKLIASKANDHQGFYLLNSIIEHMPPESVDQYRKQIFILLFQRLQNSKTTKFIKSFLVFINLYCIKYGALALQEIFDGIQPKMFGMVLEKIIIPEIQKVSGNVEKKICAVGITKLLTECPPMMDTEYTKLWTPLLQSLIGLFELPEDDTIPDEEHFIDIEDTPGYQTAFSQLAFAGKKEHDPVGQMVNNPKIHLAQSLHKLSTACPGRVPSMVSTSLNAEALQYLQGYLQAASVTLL
UniProt P63104: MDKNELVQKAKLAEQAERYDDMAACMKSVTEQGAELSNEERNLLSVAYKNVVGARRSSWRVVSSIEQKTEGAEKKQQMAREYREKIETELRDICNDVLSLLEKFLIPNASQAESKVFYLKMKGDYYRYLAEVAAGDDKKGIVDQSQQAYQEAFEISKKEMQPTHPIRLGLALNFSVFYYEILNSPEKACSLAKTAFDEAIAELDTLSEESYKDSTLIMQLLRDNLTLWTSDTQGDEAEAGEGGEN
UniProt P02768, residues 25-609: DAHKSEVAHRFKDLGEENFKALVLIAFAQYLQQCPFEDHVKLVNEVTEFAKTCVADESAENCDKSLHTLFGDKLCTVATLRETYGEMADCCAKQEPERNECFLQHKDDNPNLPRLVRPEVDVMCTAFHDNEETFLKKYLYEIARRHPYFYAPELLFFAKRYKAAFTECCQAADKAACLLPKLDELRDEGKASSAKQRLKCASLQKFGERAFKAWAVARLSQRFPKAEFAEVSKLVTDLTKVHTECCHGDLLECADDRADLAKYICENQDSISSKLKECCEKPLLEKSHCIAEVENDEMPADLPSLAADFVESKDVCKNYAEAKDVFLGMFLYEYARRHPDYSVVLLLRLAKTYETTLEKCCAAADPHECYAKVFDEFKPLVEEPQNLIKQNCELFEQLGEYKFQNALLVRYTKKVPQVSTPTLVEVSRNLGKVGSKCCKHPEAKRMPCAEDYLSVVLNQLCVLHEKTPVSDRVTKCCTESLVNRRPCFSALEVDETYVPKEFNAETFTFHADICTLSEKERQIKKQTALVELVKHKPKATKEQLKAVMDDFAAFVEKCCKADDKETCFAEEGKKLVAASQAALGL

The molecules below were run against HA-ITM2A (UniProt O43736) (assay: affinity purification with mass spectrometry; HEK293 transfected with HA-ITM2A or empty pcDNA3.1, immunoprecipitated as for co-IP, trypsin digestion, mass spectrometry; proteins of the empty-vector control subtracted).

binding, binds:
DNAJA1 (from UniProt P31689 1-397)
CDKN2A (from UniProt P42771 1-156)
EEF1G (from UniProt P26641 1-437)
DNAJA2 (from UniProt O60884 1-412)
RALY (from UniProt Q9UKM9 1-306)
EIF4A1 (from UniProt P60842 1-406)
TRIM21 (from UniProt P19474 1-475)
PSMD3 (from UniProt O43242 1-534)
FLNA (from UniProt P21333 1-2647)
NPM1 (from UniProt P06748 1-294)
HSPA5 (from UniProt P11021 19-654)
SNRPA (from UniProt P09012 1-282)
FLNC (from UniProt Q14315 1-2725)
PAI-1 (from UniProt P05121 24-402)
CANX (from UniProt P27824 21-592)
GP96 (from UniProt P14625 22-803)
CSE1L (from UniProt P55060 1-971)
BAG2 (from UniProt O95816 1-211)
YWHAZ (from UniProt P63104 1-245)
SLC3A2 (from UniProt P08195 1-529)
FLG (from UniProt P20930 1-4061)
ALB (from UniProt P02768 25-609)
B1
B2
B3
B4
B5

— paper PMC8394137
